Measured values from publication PMC7806630, “Molecular basis of the interaction of the human tyrosine phosphatase PTPN3 with the hepatitis B virus core protein” (Scientific Reports, 2021).
No constants are given. Whether binding was seen depends on the method and setting. Binding can be weak; no strength is given.

Amino acid sequences for entries named in this document (tags omitted). A change or cut given only in a name is not applied to a line headed by its entry.
UniProt P29074: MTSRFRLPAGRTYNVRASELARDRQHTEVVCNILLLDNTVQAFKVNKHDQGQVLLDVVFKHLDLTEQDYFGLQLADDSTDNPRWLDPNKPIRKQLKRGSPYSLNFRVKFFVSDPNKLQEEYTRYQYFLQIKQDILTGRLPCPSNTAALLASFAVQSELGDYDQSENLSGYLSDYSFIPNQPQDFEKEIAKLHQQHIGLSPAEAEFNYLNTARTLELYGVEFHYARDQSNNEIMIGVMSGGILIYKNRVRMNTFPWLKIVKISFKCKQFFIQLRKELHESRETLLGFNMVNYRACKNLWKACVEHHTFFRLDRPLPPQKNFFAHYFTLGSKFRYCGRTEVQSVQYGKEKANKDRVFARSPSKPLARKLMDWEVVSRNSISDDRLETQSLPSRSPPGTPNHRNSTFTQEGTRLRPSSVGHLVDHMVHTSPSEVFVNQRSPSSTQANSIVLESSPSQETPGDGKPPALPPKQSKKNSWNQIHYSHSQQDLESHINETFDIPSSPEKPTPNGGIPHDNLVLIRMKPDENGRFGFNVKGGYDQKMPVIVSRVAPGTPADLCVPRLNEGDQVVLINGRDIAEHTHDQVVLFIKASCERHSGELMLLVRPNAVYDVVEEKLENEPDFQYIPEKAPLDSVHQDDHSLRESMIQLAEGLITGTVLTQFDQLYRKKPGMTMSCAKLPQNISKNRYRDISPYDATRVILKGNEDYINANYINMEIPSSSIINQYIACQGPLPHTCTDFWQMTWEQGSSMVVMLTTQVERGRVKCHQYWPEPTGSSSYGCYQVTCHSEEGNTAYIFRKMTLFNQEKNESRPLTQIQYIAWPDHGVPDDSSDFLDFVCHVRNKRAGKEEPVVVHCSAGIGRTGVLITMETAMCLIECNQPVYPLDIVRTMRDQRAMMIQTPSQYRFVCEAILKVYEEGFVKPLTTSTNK

Biological target: T1, biotinylated PBM-HBc peptide (hepatitis B virus)
T1 sequence (peptide, biotin (position not stated)): RRRRSQSRESQC
Test: holdup assay; automated high-throughput holdup assay, biotinylated PBM-HBc peptide against the human PDZ domain library, duplicates; threshold binding intensity 0.2

Q: “PDZ domain of the non-receptor protein tyrosine phosphatase 4 (PTPN4) (from UniProt P29074) (domain or fragment)” was tested. Which binding did it give?
A: The binding was “binds”.
